PubChem BioAssay AID493246 | Drosophila RNAi Screening Center, 2011
The deposit covers about 21,000 reagents; shown is a random part of those with a known target gene and a result. Of all reagents, 429 (2%) were called active. 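Values are raw and not normalised between plates; calls rest on per-plate z-scores that were not deposited.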 A plus sign joins genes that one reagent is predicted to hit. The record does not give: the amount of reagent, the time to read-out.

Aim: 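Genome-wide search for dsRNAs that reduce cell number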 (primary screen)
System: Drosophila Kc and S2R+ cells
Reagent: long dsRNA against Drosophila genes
Read-out: 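Cell number per well after knock-down, printed as raw plate values; calls were based on per-plate z-scores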
Scale: Kc cell number and S2R+ cell number: higher = more cells remaining
Call rule: 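Active when the per-plate z-score of cell number is 3 or more in the direction of fewer cells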

Target gene	amplicon	Kc cell number, rep 1	Kc cell number, rep 2	S2R+ cell number, rep 1	S2R+ cell number, rep 2	outcome
Cyp6u1	DRSC05015	1.33e6	1.37e6	1.11e6	1.24e6	inactive
CG13476	DRSC10019	1.39e6	1.59e6	1.23e6	1.28e6	inactive
CG34135	DRSC12702	1.47e6	1.70e6	1.09e6	1.26e6	inactive
CG17097	DRSC02569	1.70e6	1.61e6	1.22e6	1.39e6	inactive
CG8476	DRSC16426	1.40e6	1.36e6	1.10e6	1.19e6	inactive
mthl11	DRSC12779	1.39e6	1.36e6	1.02e6	1.17e6	inactive
Gr22e	DRSC20912	1.64e6	1.91e6	1.27e6	1.29e6	inactive
dpr2	DRSC02370	1.47e6	1.59e6	1.26e6	1.38e6	inactive
dpr2	DRSC02371	1.53e6	1.59e6	1.23e6	1.35e6	inactive
cv-c	DRSC14969	1.45e6	1.45e6	1.19e6	1.28e6	inactive
cv-c	DRSC14970	1.40e6	1.50e6	1.18e6	1.33e6	inactive
cv-c	DRSC14971	1.27e6	1.22e6	8.86e5	9.74e5	inactive
cv-c	DRSC14972	1.50e6	1.54e6	1.01e6	1.15e6	inactive
cv-c	DRSC14973	1.50e6	1.57e6	9.65e5	1.05e6	inactive
cv-c	DRSC16428	1.46e6	1.44e6	1.14e6	1.20e6	inactive
l(2)k10201	DRSC06439	1.63e6	1.68e6	1.35e6	1.48e6	inactive
l(2)k10201	DRSC07640	1.71e6	1.66e6	1.43e6	1.46e6	inactive
CG34384	DRSC12644	1.39e6	1.52e6	1.09e6	1.24e6	inactive
CG34384	DRSC14855	1.35e6	1.36e6	1.25e6	1.42e6	inactive
CG34384	DRSC15444	1.48e6	1.50e6	1.37e6	1.52e6	inactive
CG34384	DRSC16575	1.40e6	1.49e6	1.39e6	1.46e6	inactive
Ucp4A	DRSC19996	1.55e6	1.54e6	1.03e6	1.17e6	inactive
CG6168	DRSC10596	1.45e6	1.36e6	1.41e6	1.47e6	inactive
Mer	DRSC20259	1.54e6	1.58e6	1.04e6	1.20e6	inactive
CG15767	DRSC18073	1.43e6	1.46e6	8.81e5	9.97e5	inactive
mfas	DRSC16997	1.49e6	1.50e6	1.16e6	1.25e6	inactive
Tob	DRSC20294	5.63e5		1.01e6		inactive
CG34175	DRSC00424	1.88e6	1.79e6	9.98e5	1.17e6	inactive
srl	DRSC12340	1.60e6	2.01e6	1.29e6	1.40e6	inactive
robl62A	DRSC08153	1.41e6	1.32e6	1.00e6	1.20e6	inactive
CG31206	DRSC13388	1.49e6	1.51e6	1.05e6	1.16e6	inactive
CG32563	DRSC19934	1.53e6	1.57e6	1.16e6	1.27e6	inactive
CG4853	DRSC06898	1.41e6	1.46e6	1.20e6	1.15e6	inactive
CG14246	DRSC14741	1.37e6	1.33e6	9.66e5	1.12e6	inactive
Gem4b + Gem4c + Glos	DRSC18244	1.55e6	1.52e6	1.07e6	1.17e6	inactive
PNKP	DRSC16512	1.52e6	1.63e6	1.34e6	1.45e6	inactive
CG7458	DRSC11829	1.38e6	1.38e6	1.01e6	1.11e6	inactive
CG17271	DRSC15210	1.26e6	1.20e6	1.07e6	1.19e6	inactive
CG33109	DRSC16533	1.42e6	1.25e6	1.05e6	1.07e6	inactive
Prp3	DRSC10912	1.47e6	1.64e6	9.97e5	1.10e6	inactive
JMJD4	DRSC03025	1.31e6	1.36e6	1.32e6	1.28e6	inactive
Arp10	DRSC19448	1.42e6	1.54e6	1.03e6	1.19e6	inactive
Mvl	DRSC16752	1.47e6	1.59e6	1.10e6	1.20e6	inactive
CG17124	DRSC02580	1.71e6	1.68e6	1.10e6	1.27e6	inactive
CG31463	DRSC14346	1.78e6	2.01e6	1.36e6	1.46e6	inactive
CG3419 (retired record)	DRSC04368	1.52e6	1.60e6	1.22e6	1.35e6	inactive
CG3419 (retired record)	DRSC04369	1.50e6	1.55e6	1.17e6	1.34e6	inactive
CG11581	DRSC19407	1.50e6	1.53e6	1.07e6	1.14e6	inactive
Tpl94D	DRSC13593	1.69e6	1.62e6	1.11e6	1.26e6	inactive
vls	DRSC02101	1.40e6	1.52e6	1.33e6	1.36e6	inactive
mRpS23	DRSC01348	1.50e6	1.60e6	1.03e6	1.22e6	inactive
CG32032	DRSC08961	1.59e6	1.72e6	1.11e6	1.26e6	inactive
CG10081	DRSC05962	1.52e6	1.55e6	1.14e6	1.21e6	inactive
Tsp42Ea	DRSC04982	1.61e6	1.61e6	1.18e6	1.37e6	inactive
Tsp42Ea	DRSC06792	1.51e6	1.64e6	1.29e6	1.47e6	inactive
CNPYb	DRSC09845	1.59e6	1.61e6	1.24e6	1.35e6	inactive
CG3124	DRSC04339	1.28e6	1.38e6	9.16e5	9.62e5	active
CG34417	DRSC17467	1.26e6	1.54e6	1.07e6	1.22e6	inactive
CG34417	DRSC18332	1.53e6	1.42e6	1.02e6	1.10e6	inactive
CG34417	DRSC18333	6.03e5		9.17e5		inactive

Copied from above (7 entries):
Target gene	amplicon	Kc cell number, rep 1	Kc cell number, rep 2	S2R+ cell number, rep 1	S2R+ cell number, rep 2	outcome
CG34135	DRSC12702	1.47e6	1.70e6	1.09e6	1.26e6	inactive
CG17097	DRSC02569	1.70e6	1.61e6	1.22e6	1.39e6	inactive
CG8476	DRSC16426	1.40e6	1.36e6	1.10e6	1.19e6	inactive
mthl11	DRSC12779	1.39e6	1.36e6	1.02e6	1.17e6	inactive
Gr22e	DRSC20912	1.64e6	1.91e6	1.27e6	1.29e6	inactive
dpr2	DRSC02370	1.47e6	1.59e6	1.26e6	1.38e6	inactive
dpr2	DRSC02371	1.53e6	1.59e6	1.23e6	1.35e6	inactive
